From PubChem BioAssay AID330 (DTP/NCI, 2004)
The list shows only some results of the screen, not a fair sample: it gathers tests that were run many times, whatever their T/C, doses with no T/C, and many T/C values between a quarter and a half above the control. Further doses and runs are listed elsewhere. T/C is the treated group as % of the vehicle group. Some doses have a count of surviving animals in place of a T/C: the source files T/C as zero there, which appears to mark a toxic dose or a test without result, not a measured value. Some survivor counts are full or nearly so, which does not show that the dose was tolerated: survival well below the control is almost never listed, so the zero probably covers shortened survival too. Counts of survivors are from the toxicity check (mostly the fifth day) where no day follows; animals may have died later. Schedule codes are those of the source, taken here to give the interval after Q, in days (D) or hours (H), and the number of doses after X. Marks such as (2×) count equal records among those shown. Some entries were tested several times; their values stand side by side, smallest first. Where survival is the endpoint, this PubChem deposit counts one and a half times the control or more as active, and values a quarter to a half above the control carry no call in these data; other NCI protocols may use other cut-offs.

Tested on: P388 leukemia ip, CD2F1 mice, survival T/C
Experiment: NCI In Vivo Anticancer Drug Screen. Data for tumor model P388 Leukemia (intraperitoneal) in CD2F1 (CDF1) mice
Details: T/C endpoint: median survival time, higher T/C = longer survival
[1] = dose: 240.0 mg/kg/injection, schedule: Q01DX005 (ip), vehicle: saline with Tween-80
[2] = dose: 100.0 mg/kg/injection, schedule: Q01DX005 (ip), vehicle: Klucel (hydroxypropylcellulose) (HPC)
[3] = dose: 200.0 mg/kg/injection, schedule: Q01DX009 (ip), vehicle: Klucel (hydroxypropylcellulose) (HPC)
[4] = dose: 200.0 mg/kg/injection, schedule: Q01DX009 (ip), vehicle: saline with Tween-80
[5] = dose: 50.0 mg/kg/injection, schedule: Q01DX005 (ip), vehicle: saline with Tween-80
[6] = dose: 100.0 mg/kg/injection, schedule: Q01DX005 (ip), vehicle: saline with Tween-80
[7] = dose: 200.0 mg/kg/injection, schedule: Q01DX005 (ip), vehicle: saline with Tween-80
[8] = dose: 50.0 mg/kg/injection, schedule: Q01DX005 (ip), vehicle: Klucel (hydroxypropylcellulose) (HPC)
[9] = dose: 200.0 mg/kg/injection, schedule: Q01DX005 (ip), vehicle: Klucel (hydroxypropylcellulose) (HPC)

## CC[N+](CC)(CC)CCCNC1=CC(=O)C(NCCC[N+](CC)(CC)CC)=CC1=O
dose: 1.56 mg/kg/injection, schedule: Q04DX003 (ip), vehicle: saline
  survivor count: 1 of 6
dose: 3.12 mg/kg/injection, schedule: Q04DX003 (ip), vehicle: saline
  survivor count: 1 of 6
dose: 6.25 mg/kg/injection, schedule: Q04DX003 (ip), vehicle: saline
  survivor count: 0 of 6
dose: 12.5 mg/kg/injection, schedule: Q04DX003 (ip), vehicle: saline
  survivor count: 0 of 6
dose: 25.0 mg/kg/injection, schedule: Q04DX003 (ip), vehicle: saline
  survivor count: 0 of 6

## CC1C2Cc3ccc(O)cc3C1(C)CCN2C (centres undefined)
[1]
  survivor count: 1 of 6

## CCN1CCC(O)(/C=C/c2ccccc2)C(C(=O)/C=C/c2ccccc2)C1 (centres undefined)
dose: 240.0 mg/kg/injection, schedule: Q01DX005 (ip), vehicle: Klucel (hydroxypropylcellulose) (HPC)
  survivor count: 3 of 6

## COc1ccc(-c2nc(SCC(=O)O)n(-c3ccccn3)c2-c2ccc(OC)cc2)cc1
dose: 400.0 mg/kg/injection, schedule: Q01DX001 (ip), vehicle: water
  survivor count: 4 of 6

## CC12C(=O)C(Br)C1CC2S(=O)(=O)O (centres undefined)
dose: 100.0 mg/kg/injection, schedule: Q04DX002 (ip), vehicle: saline with Tween-80
  survivor count: 6 of 6

## O=c1c2ccccc2nc(/C=N/NC(=S)Nc2ccc(Cl)cc2)n1-c1ccc(Br)cc1
dose: 400.0 mg/kg/injection, schedule: Q04DX002 (ip), vehicle: saline with Tween-80
  survivor count: 0 of 6

## C/C=C/[P+](c1ccccc1)(c1ccccc1)c1ccccc1
dose: 6.25 mg/kg/injection, schedule: Q01DX009 (ip), vehicle: saline
  T/C: 148 % of control
dose: 12.5 mg/kg/injection, schedule: Q01DX009 (ip), vehicle: saline
  T/C: 138 % of control
dose: 25.0 mg/kg/injection, schedule: Q01DX009 (ip), vehicle: saline
  survivor count: 0 of 6
dose: 50.0 mg/kg/injection, schedule: Q01DX009 (ip), vehicle: saline
  survivor count: 0 of 6
dose: 100.0 mg/kg/injection, schedule: Q01DX009 (ip), vehicle: saline
  survivor count: 0 of 6
dose: 200.0 mg/kg/injection, schedule: Q01DX009 (ip), vehicle: saline
  survivor count: 0 of 6

## O=c1c(Cc2c(-c3ccccc3)[nH]c3ccccc23)coc2ccccc12
[1]
  survivor count: 6 of 6

## Nc1ccc2ccc3ccc(N)nc3c2n1
[1]
  survivor count: 0 of 6

## CC1(C(Cl)(Cl)Cl)C=C(Cl)C(=O)C(Cl)=C1
[2]
  survivor count: 5 of 5

## CCN=C(Cl)N(C)c1ccccc1
[3]
  survivor count: 3 of 6

## CN(C)C1CCc2[nH]c3c(F)cc(F)cc3c2C1 (centres undefined)
dose: 100.0 mg/kg/injection, schedule: Q01DX009 (ip), vehicle: saline with Tween-80
  survivor count: 3 of 6
[4]
  survivor count: 1 of 6

## N#CC(Br)(C#N)Cc1ccccc1
dose: 100.0 mg/kg/injection, schedule: Q01DX009 (ip), vehicle: Klucel (hydroxypropylcellulose) (HPC)
  survivor count: 6 of 6
[3]
  survivor count: 4 of 6

## C=C(Br)S(=O)(=O)OCCCl
dose: 25.0 mg/kg/injection, schedule: Q01DX005 (ip), vehicle: saline with Tween-80
  survivor count: 0 of 6
[5]
  survivor count: 0 of 6
[6]
  survivor count: 0 of 6
[7]
  survivor count: 0 of 6

## CCOC(=O)/N=[N+](\[O-])c1ccccc1
dose: 3.12 mg/kg/injection, schedule: Q01DX009 (ip), vehicle: saline with Tween-80
  T/C: 132 % of control
dose: 6.25 mg/kg/injection, schedule: Q01DX009 (ip), vehicle: saline with Tween-80
  T/C: 126 % of control
dose: 25.0 mg/kg/injection, schedule: Q04DX003 (ip), vehicle: saline with Tween-80
  survivor count: 1 of 6
dose: 50.0 mg/kg/injection, schedule: Q04DX003 (ip), vehicle: saline with Tween-80
  survivor count: 1 of 6
dose: 100.0 mg/kg/injection, schedule: Q04DX003 (ip), vehicle: saline with Tween-80
  survivor count: 2 of 6
dose: 200.0 mg/kg/injection, schedule: Q04DX003 (ip), vehicle: saline with Tween-80
  survivor count: 0 of 6
dose: 400.0 mg/kg/injection, schedule: Q04DX003 (ip), vehicle: saline with Tween-80
  survivor count: 0 of 6

## Cn1c(=O)ccc2c1nc1ccccc1[n+]2[O-]
[1]
  survivor count: 0 of 6

## C[C@@H]1C[C@@H]2c3cccc4[nH]cc(c34)C[C@H]2N(C)C1
[5]
  survivor count: 3 of 6
[6]
  survivor count: 0 of 6
[7]
  survivor count: 0 of 6

## CC1=CC(O)C(O)C2(C)C1CC(=O)C13COC4OC(CC1C4=O)C(O)C32 (centres undefined)
dose: 8.0 mg/kg/injection, schedule: Q01DX009 (ip), vehicle: Klucel (hydroxypropylcellulose) (HPC)
  T/C: 128 % of control

## CCOC(=O)C(C)(C)CN(CCCN(C)C)CC(C)(C)C(=O)OCC
[4]
  survivor count: 0 of 6

## CCN(CC)CCSc1nnc(-c2cc(OC)c(OC)c(OC)c2)o1
dose: 200.0 mg/kg/injection, schedule: Q04DX003 (ip), vehicle: water
  survivor count: 0 of 6

## CC(=O)c1cc(C(=O)O)c(O)c2ccccc12
[3]
  survivor count: 2 of 6

## CC(C)CC(NC(=O)C(CSCc1ccccc1)NC(=O)OCc1ccccc1)C(N)=O (centres undefined)
[8]
  survivor count: 6 of 6
[2]
  survivor count: 6 of 6
[9]
  survivor count: 6 of 6

## COC(=O)c1nc(N)nc(C(=O)OC)c1C(=O)c1ccc(C)cc1
[1]
  survivor count: 0 of 6

## COc1ccc(CC#N)c(OC)c1
dose: 50.0 mg/kg/injection, schedule: Q01DX009 (ip), vehicle: other
  survivor count: 2 of 5
dose: 100.0 mg/kg/injection, schedule: Q01DX009 (ip), vehicle: other
  survivor count: 0 of 5
dose: 200.0 mg/kg/injection, schedule: Q01DX009 (ip), vehicle: other
  survivor count: 0 of 5

## O=C(Nc1ccc([N+](=O)[O-])cc1)Nc1nccs1
dose: 25.0 mg/kg/injection, schedule: Q01DX009 (ip), vehicle: distilled water + Tween-80
  T/C: 127 % of control
dose: 50.0 mg/kg/injection, schedule: Q01DX009 (ip), vehicle: distilled water + Tween-80
  T/C: 130 and 142 % of control
dose: 100.0 mg/kg/injection, schedule: Q01DX009 (ip), vehicle: distilled water + Tween-80
  survivor count: 3 of 6
dose: 200.0 mg/kg/injection, schedule: Q01DX009 (ip), vehicle: distilled water + Tween-80
  survivor count: 0 of 6 and 1 of 6
dose: 400.0 mg/kg/injection, schedule: Q01DX009 (ip), vehicle: distilled water + Tween-80
  survivor count: 0 of 6

## Cc1ccc(-n2c(C)nc3c(c(C)c(C)n3-c3ccccc3)c2=N)cc1
[8]
  survivor count: 0 of 6
[2]
  survivor count: 0 of 6
[9]
  survivor count: 0 of 6

## CCOC(=O)COc1ccc(/C=C(\C)[N+](=O)[O-])c2ccccc12
dose: 400.0 mg/kg/injection, schedule: Q01DX009 (ip), vehicle: saline with Tween-80
  survivor count: 3 of 6

## CC(C)(Cc1nocc1C(C)(C)CC#N)c1cc(CC(C)(C)C2(C)OCCO2)no1
[1]
  survivor count: 4 of 6

## CC(C)SC(=S)S(=O)(=O)c1ccc(Cl)cc1
[4]
  survivor count: 0 of 6 (2×)

## CCCCC(C)N(CCNc1cc(OC)cc2cccnc12)CC(C)C (centres undefined)
dose: 100.0 mg/kg/injection, schedule: Q01DX005 (ip), vehicle: saline
  survivor count: 2 of 5
dose: 200.0 mg/kg/injection, schedule: Q01DX005 (ip), vehicle: saline
  survivor count: 0 of 5

## Cn1c(=O)c2c(ncn2-c2ccc(N)cc2Cl)n(C)c1=O
dose: 100.0 mg/kg/injection, schedule: Q01DX005 (ip), vehicle: distilled water + alcohol
  survivor count: 3 of 5

## COc1cccc2c1C(=O)c1c(O)c3c(c(O)c1C2=O)C[C@@](O)(C(C)=O)C[C@@H]3OC1CC(N2CCC(OC)CC2)C(O)C(C)O1 (some centres undefined)
dose: 3.12 mg/kg/injection, schedule: Q04DX003 (ip), vehicle: water, evaluated on day 30
  T/C: 126 % of control
dose: 3.12 mg/kg/injection, schedule: Q04DX003 (ip), vehicle: water, evaluated on day 35
  T/C: 142 % of control
dose: 12.5 mg/kg/injection, schedule: Q04DX003 (ip), vehicle: water
  T/C: 140 % of control

## CCOC(=O)C(C(=O)OCC)=C(C)C
dose: 266.0 mg/kg/injection, schedule: Q01DX009 (ip), vehicle: saline with Tween-80
  T/C: 125 % of control
dose: 600.0 mg/kg/injection, schedule: Q01DX009 (ip), vehicle: saline with Tween-80
  T/C: 125 % of control
